Some results were stated once for a whole list of compounds, not compound by compound.
How the values were obtained:
[1] = Microsomal stability assay; format: in vitro ADME; conditions: 5 μM compound
[2] = target: T1, Aurora-2 (Aurora A) (Homo sapiens, UniProt O14965); assay: Aurora-2 (Aurora A) inhibition assay, coupled enzyme; format: biochemical; conditions: 400 μM ATP, 30° C.
T1 sequence (O14965 1-403): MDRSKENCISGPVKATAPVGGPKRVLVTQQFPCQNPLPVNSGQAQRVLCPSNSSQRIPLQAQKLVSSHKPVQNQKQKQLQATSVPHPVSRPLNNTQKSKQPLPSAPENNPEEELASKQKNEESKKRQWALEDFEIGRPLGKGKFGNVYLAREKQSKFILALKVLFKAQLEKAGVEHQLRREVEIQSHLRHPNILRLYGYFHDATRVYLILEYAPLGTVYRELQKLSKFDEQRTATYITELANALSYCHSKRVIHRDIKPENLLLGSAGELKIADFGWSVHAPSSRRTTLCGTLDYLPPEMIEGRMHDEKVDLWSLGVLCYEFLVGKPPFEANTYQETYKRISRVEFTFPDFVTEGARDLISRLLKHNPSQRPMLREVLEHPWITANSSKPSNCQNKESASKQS
Procedure: Compounds were screened for their ability to inhibit Aurora-2 using a standard coupled enzyme assay (Fox et al., Protein Sci., (1998) 7, 2249). Assays were carried out in a mixture of 100 mM Hepes (pH7.5), 10 mM MgCl2, 1 mM DTT, 25 mM NaCl, 2.5 mM phosphoenolpyruvate, 300 μM NADH, 30 μg/ml pyruvate kinase and 10 μg/ml lactate dehydrogenase. Final substrate concentrations in the assay were 400 μM ATP (Sigma Chemicals) and 570 μM peptide (Kemptide, American Peptide, Sunnyvale, Calif.). Assays were carried out at 30° C. and in the presence of 40 nM Aurora-2.
An assay stock buffer solution was prepared containing all of the reagents listed above, with the exception of Aurora-2 and the test compound of interest. 55 μl of the stock solution was placed in a 96 well plate followed by addition of 2 μl of DMSO stock containing serial dilutions of the test compound (typically starting from a final concentration of 7.5 μM). The plate was preincubated for 10 minutes at 30° C. and the reaction initiated by addition of 10 μl of Aurora-2. Initial reaction rates were determined with a Molecular Devices SpectraMax Plus plate reader over a 10 minute time course. IC50 and Ki data were calculated from non-linear regression analysis using the Prism software package (GraphPad Prism version 3.0cx for Macintosh, GraphPad Software, San Diego Calif., USA).

Amino acid sequences for entries named in this document (tags omitted).
UniProt Q96GD4, whole entry: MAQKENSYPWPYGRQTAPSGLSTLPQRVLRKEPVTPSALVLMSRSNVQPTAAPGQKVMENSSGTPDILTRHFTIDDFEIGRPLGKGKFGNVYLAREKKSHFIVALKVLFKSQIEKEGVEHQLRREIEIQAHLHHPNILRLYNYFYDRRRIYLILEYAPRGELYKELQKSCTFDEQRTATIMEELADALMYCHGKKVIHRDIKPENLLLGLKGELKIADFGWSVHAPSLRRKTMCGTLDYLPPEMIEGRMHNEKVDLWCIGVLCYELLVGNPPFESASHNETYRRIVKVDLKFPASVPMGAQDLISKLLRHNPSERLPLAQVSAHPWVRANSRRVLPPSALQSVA
UniProt P00519, whole entry, stated change not applied: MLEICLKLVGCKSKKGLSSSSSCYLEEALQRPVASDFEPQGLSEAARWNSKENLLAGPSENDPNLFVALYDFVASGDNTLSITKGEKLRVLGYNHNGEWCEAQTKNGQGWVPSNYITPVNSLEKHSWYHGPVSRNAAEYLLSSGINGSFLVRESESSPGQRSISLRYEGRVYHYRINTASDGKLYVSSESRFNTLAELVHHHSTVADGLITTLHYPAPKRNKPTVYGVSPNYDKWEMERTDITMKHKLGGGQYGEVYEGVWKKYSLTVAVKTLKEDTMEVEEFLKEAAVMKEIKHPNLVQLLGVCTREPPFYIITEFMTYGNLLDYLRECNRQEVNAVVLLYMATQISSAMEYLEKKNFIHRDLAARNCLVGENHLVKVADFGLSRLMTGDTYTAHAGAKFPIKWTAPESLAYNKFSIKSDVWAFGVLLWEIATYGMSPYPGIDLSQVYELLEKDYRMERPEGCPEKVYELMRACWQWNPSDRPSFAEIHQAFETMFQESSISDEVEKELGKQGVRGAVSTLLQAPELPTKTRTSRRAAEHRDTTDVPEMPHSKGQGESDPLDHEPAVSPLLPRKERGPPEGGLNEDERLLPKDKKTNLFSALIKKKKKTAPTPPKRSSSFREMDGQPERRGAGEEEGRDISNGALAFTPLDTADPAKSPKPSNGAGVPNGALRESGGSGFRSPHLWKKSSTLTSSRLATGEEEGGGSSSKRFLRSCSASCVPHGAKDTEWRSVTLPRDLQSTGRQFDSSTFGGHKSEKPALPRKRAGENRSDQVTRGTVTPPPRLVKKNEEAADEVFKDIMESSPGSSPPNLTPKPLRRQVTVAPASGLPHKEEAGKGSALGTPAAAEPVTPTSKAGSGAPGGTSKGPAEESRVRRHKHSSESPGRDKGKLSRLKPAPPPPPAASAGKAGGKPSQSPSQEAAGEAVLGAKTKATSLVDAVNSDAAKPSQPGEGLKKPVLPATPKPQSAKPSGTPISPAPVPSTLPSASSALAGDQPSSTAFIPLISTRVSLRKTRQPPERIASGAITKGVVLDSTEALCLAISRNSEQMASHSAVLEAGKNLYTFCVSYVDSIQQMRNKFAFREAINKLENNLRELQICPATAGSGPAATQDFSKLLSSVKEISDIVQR

[3] = target: Aurora-1 (Aurora B) (Homo sapiens, UniProt Q96GD4); assay: Aurora-1 (Aurora B) inhibition assay (radiometric); format: biochemical; conditions: 800 μM ATP, 25° C.; read-out: Ki, Aurora-1 (Aurora B) radiometric assay (sentence prints Aurora A)
Procedure: An assay buffer solution was prepared which consisted of 25 mM HEPES (pH 7.5), 10 mM MgCl2, 0.1% BSA and 10% glycerol. A 22 nM Aurora-B solution, also containing 1.7 mM DTT and 1.5 mM Kemptide (LRRASLG), was prepared in assay buffer. To 22 μL of the Aurora-B solution, in a 96-well plate, was added 2 μl of a compound stock solution in DMSO and the mixture allowed to equilibrate for 10 minutes at 25° C. The enzyme reaction was initiated by the addition of 16 μl stock [γ-^33P]-ATP solution ([…]) prepared in assay buffer, to a final assay concentration of 800 μM. The reaction was stopped after 3 hours by the addition of 16 μL 500 mM phosphoric acid and the levels of ^33P incorporation into the peptide substrate were determined by the following method.
A phosphocellulose 96-well plate (Millipore, Cat no. MAPHNOB50) was pre-treated with 100 μL of a 100 mM phosphoric acid prior to the addition of the enzyme reaction mixture (40 μL). The solution was left to soak on to the phosphocellulose membrane for 30 minutes and the plate subsequently washed four times with 200 μL of a 100 mM phosphoric acid. To each well of the dry plate was added 30 μL of Optiphase ‘SuperMix’ liquid scintillation cocktail (Perkin Elmer) prior to scintillation counting (1450 Microbeta Liquid Scintillation Counter, Wallac). Levels of non-enzyme catalyzed background radioactivity were determined by adding 16 μL of the 500 mM phosphoric acid to control wells, containing all assay components (which acts to denature the enzyme), prior to the addition of the [γ-^33P]-ATP solution. Levels of enzyme catalyzed ^33P incorporation were calculated by subtracting mean background counts from those measured at each inhibitor concentration. For each Ki determination 8 data points, typically covering the concentration range 0-10 μM compound, were obtained in duplicate (DMSO stocks were prepared from an initial compound stock of 10 mM with subsequent 1:2.5 serial dilutions). Ki values were calculated from initial rate data by non-linear regression using the Prism software package (Prism 3.0, Graphpad Software, San Diego, Calif.).

[4] = target: N-terminally truncated (Δ 27) Abl kinase (Homo sapiens, UniProt P00519); assay: Abl kinase activity inhibition assay, coupled enzyme; format: biochemical; conditions: 110 μM ATP, 30° C.

For `Cc1cc(Nc2cc(N3CCN(C4CCCCC4)CC3)nc(Sc3cc(F)c4nc(C)ccc4c3)n2)[nH]n1` [Compound I-1], the “% parent remaining after 30 minutes incubation with human liver microsomes” value [1] was > 50%.

For `Cc1cc(Nc2cc(N3CCN(C(C)(C)CF)CC3)nc(Sc3ccc4c(c3)CN(CC(F)(F)F)C4=O)n2)[nH]n1` [Compound I-2], the Ki [2] was ≤ 1 nM.

In the case of `Cc1cc(Nc2cc(N3CCN(C4CCCCC4)CC3)nc(Sc3ccc4nc(C(F)(F)F)n(C)c4c3)n2)[nH]n1` [Compound I-3], the “% parent remaining after 30 minutes incubation with human liver microsomes” value [1] is reported as > 50%.

In the case of `Cc1cc(Nc2cc(N3CCN(C4CC4)CC3)nc(Sc3ccc4nc(C(F)(F)F)[nH]c4c3)n2)[nH]n1` [Compound I-4], the Ki [2] is reported as ≤ 1 nM and the “% parent remaining after 30 minutes incubation with human liver microsomes” value [1] is reported as > 50%.

In the case of `Cc1cc(Nc2cc(N3CCN(C4CC4)CC3)nc(Sc3ccc4nc(CC(F)(F)F)n(C)c4c3)n2)[nH]n1` [Compound I-5], the Ki [2] is reported as ≤ 1 nM.

For `Cc1cc(Nc2cc(N3CCN(C(C)(C)CF)CC3)nc(Sc3cc(F)c4nc(C)ccc4c3)n2)[nH]n1` [Compound I-6], the Ki [2] was ≤ 1 nM.

With `Cc1cc(Nc2cc(N3CCN(C(C)(C)CF)CC3)nc(Sc3ccc4nc(CC(F)(F)F)n(C)c4c3)n2)[nH]n1` [Compound I-7] the Ki [2] was ≤ 1 nM.

For `Cc1cc(Nc2cc(N3CCN(C4CCCCC4)CC3)nc(Sc3ccc4nc(C(F)(F)F)[nH]c4c3)n2)[nH]n1` [Compound I-8], the “% parent remaining after 30 minutes incubation with human liver microsomes” value [1] was > 50%.

In the case of `Cc1cc(Nc2cc(N3CCN(CC(F)(F)F)CC3)nc(Sc3ccc4nc(C(F)(F)F)[nH]c4c3)n2)[nH]n1` [Compound I-9], the “% parent remaining after 30 minutes incubation with human liver microsomes” value [1] is reported as > 50%.

In the case of `Cc1cc(Nc2cc(N3CCN(C4CC4)CC3)nc(Sc3ccc4nc(C(F)(F)F)n(C)c4c3)n2)[nH]n1` [Compound I-10], the “% parent remaining after 30 minutes incubation with human liver microsomes” value [1] is reported as > 50%.

In the case of `Cc1cc(Nc2cc(N3CCN(C(C)(C)CF)CC3)nc(Sc3ccc4nc(C(F)(F)F)cn4c3)n2)[nH]n1` [Compound I-11], the “% parent remaining after 30 minutes incubation with human liver microsomes” value [1] is reported as > 50%.

For `Cc1cc(Nc2cc(N3CCN(C4CCN(C)CC4)CC3)nc(Sc3ccc4nc(C(F)(F)F)n(C)c4c3)n2)[nH]n1` [Compound I-12], the Ki [3] was ≤ 10 nM and the “% parent remaining after 30 minutes incubation with human liver microsomes” value [1] was > 50%.

In the case of `Cc1cc(Nc2cc(N3CCN(C4CCN(C)CC4)CC3)nc(Sc3cc(F)c4nc(C)ccc4c3)n2)[nH]n1` [Compound I-13, 2-(8-fluoro-2-methylquinolin-6-ylthio)-N-(3-methyl-1H-pyrazol-5-yl)-6-(4-(1-methylpiperidin-4-yl)piperazin-1-yl)pyrimidin-4-amine], the “% parent remaining after 60 minutes incubation with human liver microsomes” value [1] is reported as > 50%.

For `Cc1cc(Nc2cc(N3CCN(C4CC4)CC3)nc(Sc3ccc4nc(C(F)(F)F)cn4c3)n2)[nH]n1` [Compound I-14], the “% parent remaining after 30 minutes incubation with human liver microsomes” value [1] was > 50%.

In the case of `Cc1cc(Nc2cc(N3CCN(C(C)(C)C)CC3)nc(Sc3ccc4c(cnn4C)c3)n2)[nH]n1` [Compound I-16], the Ki [4] is reported as < 25 nM.

In the case of `Cc1cc(Nc2cc(N3CCN(C4CCN(C)CC4)CC3)nc(Sc3ccc4nc(C(F)(F)F)ccc4c3)n2)[nH]n1` [Compound I-17], the Ki [3] is reported as ≤ 10 nM, the Ki [2] is reported as ≤ 1 nM and the “% parent remaining after 30 minutes incubation with human liver microsomes” value [1] is reported as > 50%. The “% parent remaining after 60 minutes incubation with human liver microsomes” value [1] was > 50% and the Ki [4] was < 25 nM.

In the case of `Cc1cc(Nc2cc(N3CCN(C(C)(C)C)CC3)nc(Sc3ccc4ncn(C)c4c3)n2)[nH]n1` [Compound I-18], the Ki [3] is reported as ≤ 10 nM and the Ki [4] is reported as < 25 nM.

In the case of `Cc1cc(Nc2cc(N3CCN(C4CC4)CC3)nc(Sc3ccc4c(c3)CN(CC(F)(F)F)C4=O)n2)[nH]n1` [Compound I-20], the Ki [2] is reported as ≤ 1 nM.

For `Cc1cc(Nc2cc(N3CCN(C(C)(C)CF)CC3)nc(Sc3ccc4nc(C(F)(F)F)n(C)c4c3)n2)[nH]n1` [Compound I-21], the Ki [2] was ≤ 1 nM and the “% parent remaining after 30 minutes incubation with human liver microsomes” value [1] was > 50%.

With `Cc1cc(Nc2cc(N3CCN(CC(F)(F)F)CC3)nc(Sc3ccc4nc(C(F)(F)F)cn4c3)n2)[nH]n1` [Compound I-22] the Ki [3] was ≤ 10 nM and the “% parent remaining after 30 minutes incubation with human liver microsomes” value [1] was > 50%.

In the case of `Cc1cc(Nc2cc(N3CCN(CC(F)(F)F)CC3)nc(Sc3cc(F)c4nc(C)ccc4c3)n2)[nH]n1` [Compound I-23], the “% parent remaining after 30 minutes incubation with human liver microsomes” value [1] is reported as > 50%.

For `Cc1cc(Nc2cc(N3CCN(CC(F)(F)F)CC3)nc(Sc3ccc4c(c3)CN(CC(F)(F)F)C4=O)n2)[nH]n1` [Compound I-24], the Ki [2] was ≤ 1 nM.

— US20130324725A1, “AMINOPYRIMIDINES USEFUL AS KINASE INHIBITORS” (VERTEX PHARMACEUTICALS INCORPORATED, priority 2007, published 2013)
